We go through one molecule from paper PMC4764579, “Structural insights into the mechanism of activation of the TRPV1 channel by a membrane-bound tarantula toxin” (eLife, 2016).

Amino acid sequences for entries named in this document (tags omitted). A change or cut given only in a name is not applied to a line headed by its entry. Chains listed by the source or under a name are the forms on record and can include a tag or linker. Residues count along the entry.
TRPV1 construct used for cryo-EM (pore turret residues 604-626 deleted) (O35433, form named): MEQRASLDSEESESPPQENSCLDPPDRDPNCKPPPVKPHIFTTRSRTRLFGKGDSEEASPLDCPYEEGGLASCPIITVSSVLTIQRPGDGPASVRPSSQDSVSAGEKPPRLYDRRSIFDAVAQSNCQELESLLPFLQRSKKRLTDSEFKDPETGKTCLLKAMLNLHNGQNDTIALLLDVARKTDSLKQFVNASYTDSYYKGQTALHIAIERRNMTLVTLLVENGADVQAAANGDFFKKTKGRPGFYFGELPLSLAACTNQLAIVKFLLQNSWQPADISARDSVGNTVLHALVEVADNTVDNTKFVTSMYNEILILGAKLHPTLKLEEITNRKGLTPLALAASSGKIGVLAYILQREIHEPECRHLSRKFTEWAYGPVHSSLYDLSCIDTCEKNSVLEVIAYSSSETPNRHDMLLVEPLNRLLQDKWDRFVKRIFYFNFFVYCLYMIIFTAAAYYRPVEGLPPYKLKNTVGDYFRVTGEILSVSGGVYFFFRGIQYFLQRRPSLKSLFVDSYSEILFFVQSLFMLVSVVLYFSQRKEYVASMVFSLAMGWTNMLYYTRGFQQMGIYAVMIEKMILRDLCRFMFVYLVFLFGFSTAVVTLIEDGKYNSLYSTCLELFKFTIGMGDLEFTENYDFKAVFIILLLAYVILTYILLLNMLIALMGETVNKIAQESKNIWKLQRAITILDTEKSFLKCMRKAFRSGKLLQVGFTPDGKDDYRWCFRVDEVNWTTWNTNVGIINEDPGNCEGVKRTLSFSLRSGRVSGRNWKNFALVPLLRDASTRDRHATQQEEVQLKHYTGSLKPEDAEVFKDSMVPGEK

This test deals with TRPV1 construct used for cryo-EM (pore turret residues 604-626 deleted) (rat) (UniProt O35433). Nature of the test: cryo-EM structure; both purified.

Results are given in words; binding and its absence hold for the method and conditions named. Some entries that bind do so weakly or less than the wild type.

B1: double-knot toxin (DkTx) as bound to TRPV1 in the cryo-EM sample (protein)
chain: DCAKEGEVCSWGKKCCDLDNFYCPMEFIPHCKKYKPYVPVTTNCAKEGEVCGWGSKCCHGLDCPLAFIPYCEKYR
On to B1, for which the binding entry is “binds”.
